No constants are given. Whether binding was seen depends on the method and setting. For some assays here: Binding seen in cells or lysates may run through a third protein. Some binding calls cover weakened binding; strength is not graded here. Sequences can lack the tags named with a protein.
B1: B42-HA-MYPOP (Myb-related transcription factor, partner of profilin) (protein, UniProt Q86VE0 1-399)
chain: MASAAAGEAEETTRLRKPRFSFEENQILIREVRAHYPQLYGAQSRRVSVAERRRVWDGIAAKINGITSWKRTGQEVQKRWNDFKRRTKEKLARVPHSTQGAGPAAEDAFSAEEETIFAILGPGVAAPGAGAGAEEPPAAPSSQPPPPSACPQRYVLSEDRREDRRADTSAHSKAGSSSPEPWARPSCTPQEGGCPRPKERESPPPSALQPVQLPRLALSPPPPAPPLPPPPPLAQVAPSPPSPPPPPRPPPTLSASDPSLDFLRAQQETANAIRELAGTLRQGLAKLSEALSALLPLLPGTPVDSLPPPLPPPPPPPPPPRPVLPPPAPKVEITPEPVSVVAAVVDGAVVAARGVIIAPRSEEGAPRPPPAPLPPHDSPPHKRRKGFPTRKRRGRWKSP
B2: FLAG-tagged MYPOP (Myb-related transcription factor, partner of profilin) (protein, UniProt Q86VE0 1-399)
chain: B1 chain

The chains behind the UniProt entries cited, without tags or fusion partners. Where a name states a change or a piece, a line headed by the entry shows the natural chain unless it says otherwise. Residues count along the entry.
UniProt P03107: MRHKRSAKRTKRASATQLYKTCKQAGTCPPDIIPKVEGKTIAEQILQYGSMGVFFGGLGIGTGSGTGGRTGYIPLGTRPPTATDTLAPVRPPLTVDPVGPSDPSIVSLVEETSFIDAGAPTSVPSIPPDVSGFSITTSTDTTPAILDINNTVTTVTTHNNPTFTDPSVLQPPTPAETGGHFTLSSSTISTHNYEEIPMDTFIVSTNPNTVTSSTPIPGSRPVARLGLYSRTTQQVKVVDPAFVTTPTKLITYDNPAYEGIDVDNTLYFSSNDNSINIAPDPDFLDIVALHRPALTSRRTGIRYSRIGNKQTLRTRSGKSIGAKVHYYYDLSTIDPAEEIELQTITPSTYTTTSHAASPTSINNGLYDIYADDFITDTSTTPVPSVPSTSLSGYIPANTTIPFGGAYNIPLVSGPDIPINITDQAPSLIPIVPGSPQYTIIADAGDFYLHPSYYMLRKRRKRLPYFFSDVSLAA
LexA-L2 280-473 fusion construct (HPV16 minor capsid protein L2, residues 280-473): residues 280-473 of P03107

Columns and labels:
[1] = molecular target: LexA-L2 280-473 fusion construct (HPV16 minor capsid protein L2, residues 280-473) (human papillomavirus type 16) (UniProt P03107); test: two-hybrid; yeast strain L40; bait LexA-L2 280-473, prey B42-HA-MYPOP; growth without histidine (-His) reports bait-prey interaction
[2] = molecular target: HPV16 L2 (minor capsid protein L2) (human papillomavirus type 16) (UniProt P03107); test: co-IP; HaCaT cells co-transfected with HPV16 L2 and FLAG-tagged MYPOP; immune complexes precipitated and detected with a FLAG or L2 antibody

Binder | binding [1] | binding [2]
B1 | binds | –
B2 | – | binds

Source: PMC6265261
